The whole screen tested about 53,000 sequences, of which about 3,700 (7%) were called active.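 The calls were made as follows: active = gene knockdowns whose robust z-score for IL-1 alpha signal is at least 2 or at most -2, so actives lie on both sides; inactive = the rest.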 This is one part of the list.

The test can be described thus: Components of the Cytosolic LPS Sensing Pathway: Gene Identification via Genome-wide siRNA Screen.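 Also: robust z of the log signal after scaling to non-targeting control siRNA wells of the plate.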 As to conditions: RAW264.7 macrophages, IL-1a HTRF, actives lie on both sides, screened at 100 nM (by protocol), cells primed 5 h with Pam3CSK4 first. An outline of the steps: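 Mouse macrophage line RAW264.7 is transfected with siRNA (100 nM final), grown 48h, primed with TLR ligand Pam3CSK4 5 h and given intracellular LipidA 24 h. IL-1a in supernatant is read by HTRF and viability by luminescence.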
(In general: In TR-FRET formats the signal depends on donor and acceptor labels being close together.)
As to GGUUUUCUGGAAGUACUUGTT against Spag17, the z-score was inactive: 0.142.
Next, GCAUCAAACCUGGUUCGAATT against Mast2: inactive: -0.306; CCUGAAUUCUACAAGGUUATT against Plg: inactive: 1.1.
In the case of GGUAGCUGUGAAGAUCAUCTT against Mark2, the z-score was inactive: -0.447.
On to GCACCAGUCGAAUCCUCAATT against Gpr137, for which the z-score was inactive: -1.46.
In the case of CCAACUACAAGACCAUCGGTT against Akp3, the z-score is inactive: -0.22.
For the sequence GGCAAACCAGUGUUCCCUATT against Tmem176b, the z-score is inactive: -0.873.
In the case of GGACAUAAUUCUUUCCGUGTT against Trmt11, the z-score was inactive: 0.412.
With GCCUUCUAAGUCUGCACCATT against H2bc3, the z-score is inactive: -0.578.
For the sequence GCACCUCGGUCAUUUAUAUTT against Mettl14, the z-score was active: -2.51.
Consider GGACCUAUCAACUGAGUUUTT against Hrc, for which the z-score was inactive: 1.06.
Next, GGAUGAGCAAGAAAUCCCUTT against Ccdc137: inactive: -0.873.
For the sequence GGAAGGAGUAUGAAAAGAATT against Scgb3a2, the z-score was inactive: -1.19.
As for GGUACUUUGGAAAGAAGAGTT against Yeats4, the z-score is inactive: -1.27.
For “GCUACGGCCAGACGAACUUTT against A430005L14Rik”, the z-score is inactive: 1.32.
As for CGGUAUGAGUAGGAUCUCCTT against Cd83, the figure is inactive: -0.577; as for GGAAAUACCCUGAUAGCCATT against Etl4, inactive: 0.215.
GCACUUACUCCUUAACUCUTT against Cdk2ap2: the z-score was inactive: -0.46.
Next, GGGCUGGAAUAAACUUGUCTT against Usp15: inactive: -1.2; GGAGAUUGGCAUAGAGAAGTT against Myo5b: inactive: 0.437.
As for GGAAACAACUGAUGACUUATT against Slc7a8, the figure is inactive: 0.408; as for GGCUGUGCUUUACAACUUUTT against Olfr982, inactive: 0.289.
Regarding GCUCCUUUAUAUUCAACUGTT against Ddx11, the z-score is inactive: 1.4.
As for GGCUUUUAGACAUUUAUCUTT against Pdlim3, the figure is inactive: -0.681.
As for GCUUCCAAGACCCUAAAGCTT against Usp17lb, the figure is inactive: 0.215; as for GCUAAUUCAUGAAUUGAUGTT against Ofd1, inactive: 1.01.
For the sequence AGGAAAGCUUUCUUCACCUTT against Olfr206, the z-score is inactive: -0.408.
Next, GGGCAGAAGCUGUGAAAUCTT against Map11: inactive: -1.08; GGCCUGUUUUGUGAACUGCTT against Timm8a1: inactive: -0.795; GCUACAUUCAGGAACCACATT against Usp48: inactive: 0.484.
Consider CCCUAUCAUCGAUGGUCGCTT against Rbm38, for which the z-score was inactive: 0.291.
CCCUAAGACUAUGGAGGCCTT against Spdye4a: the z-score is inactive: 0.0656.
GCGGUAGUUUCACACUUAUTT against Onecut1: the z-score was inactive: 0.987.
Regarding GCUAUCGUUCGUCCAGCAUTT against Atf2, the z-score is inactive: -1.17.
On to CCAUUUGAUCAAGCUUUAGTT against Spock3, for which the z-score is inactive: 0.0957.
As for GGAAACAUCAGUGAGUCCGTT against Igfbp3, the figure is inactive: 0.447.
GCCUCAAGAAUACGACGAUTT against Ift57: the z-score is inactive: 0.249.
Consider GGUAUCAAUGAUUUUCUUGTT against Tas2r110, for which the z-score is inactive: 0.76.
As for GCAAGUCGAGGUAGAUUGCTT against Rap1a, the z-score is inactive: 0.515.
As for GGAGAAAGAGGAACUGGACTT against Cdc37, the figure is inactive: 0.769.
For GGAAGACAAAGUCUGGGUGTT against Hpx, the z-score is inactive: -0.915.
With GGAUGUAAUUUGCUCCACGTT against Jag2, the z-score was inactive: -0.335.
Take GCAGCAGUGCUUACUUAACTT against Ccdc25: the z-score was inactive: 0.212.
Regarding GGAGAGUCCAUACCAGAACTT against C1qa, the z-score is inactive: 0.0536.
In the case of GGAUCCACCAGUUAAGAAATT against Hdac4, the z-score was inactive: -0.945.
On to GGGUUGUGGUUAUCAAAUATT against Tmem200a, for which the z-score was inactive: 1.96.
CCACACACUGAUCAACGUGTT against Unc93b1: the z-score was inactive: 0.336.
CCAAAUGACUUUGGUCCUATT against Vax2: the z-score was inactive: 0.576.
For the sequence GGUGCAUGGAAAAAAAUUATT against Neil2, the z-score is inactive: -0.691.
Take GGUAACACCUUCCUUUAAGTT against Pstpip2: the z-score is inactive: 0.38.
On to CGGAUGAUGCCUAAACUGATT against Hspe1, for which the z-score was inactive: 0.844.
CCAGAUCCCUGAAUUGGAATT against Myc: the z-score is inactive: 1.17.
For GGUGGGUCUGUCUUAUUUATT against Csnk2a1, the z-score is inactive: 0.752.
As for GGGUGUUAGAAAUCAUUAUTT against Dgkd, the figure is inactive: 1.19.
Next, GGGAGAAGAUGAGAAGAUGTT against Casp14: inactive: -0.655.
With GCGUGAAGCACUGAGUAAGTT against Zbed3, the z-score is inactive: -0.237.
For GGAGGAGAACUGUUUGACATT against Camk4, the z-score was inactive: -0.68.
Turning to GGAGAUGGAGUCAGAUAAGTT against Aloxe3, the z-score is inactive: -0.642.
For GGCACAAGUUGACCAAUAUTT against Rtn1, the z-score is inactive: -0.263.
Take CCGUGCCAAUAGUUCUGCUTT against Dpp4: the z-score was inactive: -0.7.
As for GCGGUUUCGAUUUUUAGUUTT against Pde3b, the z-score is inactive: 1.45.
With GGCUCAGGACAAUGACUUCTT against Urgcp, the z-score is inactive: -0.114.
Next, GGAUGCCUUCGUCAUUCUATT against Slc44a1: inactive: 0.426; GGACCAGCACAUGUGGAUUTT against Olfr547: inactive: 0.31; GGGUCAGACAGGUAUUAUATT against Crispld1: inactive: -1.06.
Consider GGCUCUGAAAAUUGAACACTT against Cep83, for which the z-score is inactive: 0.0736.
Turning to GCUGCUUUGGGCACAAGAUTT against Nppb, the z-score is inactive: 0.428.
Turning to GGUAAGAAUAAAGUCGCCGTT against Nfe2l2, the z-score is inactive: 1.62.

(Values after PubChem BioAssay AID1508600 (Functional Genomics Laboratory (NCATS/FGL), 2020).)
